This passage reports log2 fold change results from the supplement of paper PMC12819154, “High-throughput peptide-centric local stability assay extends protein–ligand identification to membrane proteins, tissues and bacteria” (Nature Structural & Molecular Biology, 2025).

Protein sequences, listed by entry. Tags and fused reporters are not part of them. Lines headed by an entry give the natural chain unless they say otherwise; changes in a name come on top.
UniProt Q7TT37: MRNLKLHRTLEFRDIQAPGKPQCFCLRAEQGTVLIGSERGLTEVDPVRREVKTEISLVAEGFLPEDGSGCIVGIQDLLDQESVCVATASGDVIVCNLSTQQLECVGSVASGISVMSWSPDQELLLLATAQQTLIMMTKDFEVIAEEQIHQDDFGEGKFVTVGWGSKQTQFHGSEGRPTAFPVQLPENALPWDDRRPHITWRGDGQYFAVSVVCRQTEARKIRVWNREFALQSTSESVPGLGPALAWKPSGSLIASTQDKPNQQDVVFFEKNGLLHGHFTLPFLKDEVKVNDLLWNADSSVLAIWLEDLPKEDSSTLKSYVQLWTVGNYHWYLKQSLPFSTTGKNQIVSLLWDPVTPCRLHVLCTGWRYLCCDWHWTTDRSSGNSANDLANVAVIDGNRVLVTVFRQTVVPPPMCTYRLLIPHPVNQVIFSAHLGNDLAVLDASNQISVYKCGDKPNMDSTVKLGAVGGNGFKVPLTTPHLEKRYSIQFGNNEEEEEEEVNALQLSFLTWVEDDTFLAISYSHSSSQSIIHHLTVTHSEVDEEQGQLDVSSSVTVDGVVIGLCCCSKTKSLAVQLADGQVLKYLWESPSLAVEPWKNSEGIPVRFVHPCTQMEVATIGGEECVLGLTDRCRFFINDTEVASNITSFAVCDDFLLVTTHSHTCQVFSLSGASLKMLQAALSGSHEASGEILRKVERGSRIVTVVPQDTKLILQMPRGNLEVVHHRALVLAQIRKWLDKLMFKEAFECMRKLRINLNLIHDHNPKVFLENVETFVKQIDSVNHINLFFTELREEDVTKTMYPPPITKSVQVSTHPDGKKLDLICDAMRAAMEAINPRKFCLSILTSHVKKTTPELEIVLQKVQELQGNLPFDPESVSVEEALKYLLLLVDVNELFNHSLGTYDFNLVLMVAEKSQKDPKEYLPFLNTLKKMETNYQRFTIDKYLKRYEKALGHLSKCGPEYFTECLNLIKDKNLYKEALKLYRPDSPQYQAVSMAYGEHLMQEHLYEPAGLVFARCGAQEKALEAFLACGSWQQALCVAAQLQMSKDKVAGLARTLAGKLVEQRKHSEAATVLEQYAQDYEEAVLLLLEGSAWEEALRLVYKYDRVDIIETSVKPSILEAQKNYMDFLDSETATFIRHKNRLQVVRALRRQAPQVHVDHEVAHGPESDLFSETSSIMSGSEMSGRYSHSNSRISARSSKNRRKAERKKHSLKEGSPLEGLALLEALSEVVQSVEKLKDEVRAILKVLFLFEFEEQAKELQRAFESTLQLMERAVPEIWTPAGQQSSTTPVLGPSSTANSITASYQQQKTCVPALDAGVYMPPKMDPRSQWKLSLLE
UniProt Q80U95: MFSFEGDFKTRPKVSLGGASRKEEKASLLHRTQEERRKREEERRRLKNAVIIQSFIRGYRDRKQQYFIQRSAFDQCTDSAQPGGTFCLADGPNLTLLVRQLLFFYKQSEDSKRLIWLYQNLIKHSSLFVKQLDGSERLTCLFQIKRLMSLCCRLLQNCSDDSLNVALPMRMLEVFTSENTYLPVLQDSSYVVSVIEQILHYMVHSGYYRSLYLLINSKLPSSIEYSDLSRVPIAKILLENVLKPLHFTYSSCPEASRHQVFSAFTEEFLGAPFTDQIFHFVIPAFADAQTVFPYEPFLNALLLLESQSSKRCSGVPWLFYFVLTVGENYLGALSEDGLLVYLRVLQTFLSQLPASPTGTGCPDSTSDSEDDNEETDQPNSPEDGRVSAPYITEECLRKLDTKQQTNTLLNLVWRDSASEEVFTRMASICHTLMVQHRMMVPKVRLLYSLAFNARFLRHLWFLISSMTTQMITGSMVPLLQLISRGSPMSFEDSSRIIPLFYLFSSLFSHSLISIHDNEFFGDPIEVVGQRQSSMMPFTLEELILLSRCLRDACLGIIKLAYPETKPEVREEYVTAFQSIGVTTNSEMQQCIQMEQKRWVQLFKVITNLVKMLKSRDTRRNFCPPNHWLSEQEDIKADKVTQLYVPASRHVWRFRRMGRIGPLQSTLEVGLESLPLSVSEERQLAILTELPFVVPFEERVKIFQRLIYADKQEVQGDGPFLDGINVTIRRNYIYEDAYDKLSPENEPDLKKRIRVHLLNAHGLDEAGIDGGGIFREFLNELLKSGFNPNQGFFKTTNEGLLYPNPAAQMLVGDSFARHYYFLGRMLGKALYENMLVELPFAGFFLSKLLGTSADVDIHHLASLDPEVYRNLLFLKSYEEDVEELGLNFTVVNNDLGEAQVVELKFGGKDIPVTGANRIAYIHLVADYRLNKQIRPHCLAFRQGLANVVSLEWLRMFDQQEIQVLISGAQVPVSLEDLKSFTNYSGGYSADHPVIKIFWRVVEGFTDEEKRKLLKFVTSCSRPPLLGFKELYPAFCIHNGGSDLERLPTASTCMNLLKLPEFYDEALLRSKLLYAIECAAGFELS
UniProt Q80V26: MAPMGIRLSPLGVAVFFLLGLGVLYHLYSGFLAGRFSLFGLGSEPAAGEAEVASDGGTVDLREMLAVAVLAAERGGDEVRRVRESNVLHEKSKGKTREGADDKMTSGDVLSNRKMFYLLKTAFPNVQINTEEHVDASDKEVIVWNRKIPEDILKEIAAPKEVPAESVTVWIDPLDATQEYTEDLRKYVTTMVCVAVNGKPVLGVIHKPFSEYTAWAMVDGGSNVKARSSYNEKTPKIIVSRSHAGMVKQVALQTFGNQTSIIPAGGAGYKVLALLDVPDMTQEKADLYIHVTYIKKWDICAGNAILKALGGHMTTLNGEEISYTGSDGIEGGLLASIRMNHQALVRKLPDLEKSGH
UniProt Q7TNH6: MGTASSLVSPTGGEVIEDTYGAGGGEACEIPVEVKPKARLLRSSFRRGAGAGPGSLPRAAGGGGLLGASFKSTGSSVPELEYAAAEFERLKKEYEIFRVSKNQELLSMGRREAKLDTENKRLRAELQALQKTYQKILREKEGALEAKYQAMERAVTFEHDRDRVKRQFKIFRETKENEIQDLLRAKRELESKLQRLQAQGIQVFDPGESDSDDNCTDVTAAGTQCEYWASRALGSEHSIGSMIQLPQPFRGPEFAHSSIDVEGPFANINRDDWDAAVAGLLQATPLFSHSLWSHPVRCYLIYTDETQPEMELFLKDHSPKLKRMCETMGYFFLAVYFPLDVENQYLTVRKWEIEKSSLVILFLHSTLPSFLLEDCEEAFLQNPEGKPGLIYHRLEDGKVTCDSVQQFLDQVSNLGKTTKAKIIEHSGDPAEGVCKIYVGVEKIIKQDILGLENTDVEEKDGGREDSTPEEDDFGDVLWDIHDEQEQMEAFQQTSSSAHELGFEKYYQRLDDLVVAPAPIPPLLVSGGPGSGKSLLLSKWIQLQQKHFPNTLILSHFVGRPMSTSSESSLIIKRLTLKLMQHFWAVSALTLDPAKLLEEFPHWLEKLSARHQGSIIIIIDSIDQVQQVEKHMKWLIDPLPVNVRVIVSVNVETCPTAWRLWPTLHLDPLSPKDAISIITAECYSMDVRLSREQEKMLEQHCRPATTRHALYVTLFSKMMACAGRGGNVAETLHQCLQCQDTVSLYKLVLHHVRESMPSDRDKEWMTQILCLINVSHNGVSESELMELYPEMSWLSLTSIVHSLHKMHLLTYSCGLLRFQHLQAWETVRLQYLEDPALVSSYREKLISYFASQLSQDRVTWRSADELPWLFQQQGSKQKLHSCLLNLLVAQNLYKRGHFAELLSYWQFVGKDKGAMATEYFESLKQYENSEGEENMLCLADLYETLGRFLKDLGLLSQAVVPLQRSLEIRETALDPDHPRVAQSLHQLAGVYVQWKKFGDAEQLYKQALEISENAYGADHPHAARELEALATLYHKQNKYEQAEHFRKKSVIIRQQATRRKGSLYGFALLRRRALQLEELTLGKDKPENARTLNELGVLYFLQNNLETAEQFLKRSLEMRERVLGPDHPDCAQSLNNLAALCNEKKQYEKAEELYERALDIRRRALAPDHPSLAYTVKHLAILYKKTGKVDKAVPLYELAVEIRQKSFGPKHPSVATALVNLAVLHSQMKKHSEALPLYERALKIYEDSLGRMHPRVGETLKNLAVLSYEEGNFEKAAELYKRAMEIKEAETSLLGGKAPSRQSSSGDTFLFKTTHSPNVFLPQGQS
UniProt Q7TNE1: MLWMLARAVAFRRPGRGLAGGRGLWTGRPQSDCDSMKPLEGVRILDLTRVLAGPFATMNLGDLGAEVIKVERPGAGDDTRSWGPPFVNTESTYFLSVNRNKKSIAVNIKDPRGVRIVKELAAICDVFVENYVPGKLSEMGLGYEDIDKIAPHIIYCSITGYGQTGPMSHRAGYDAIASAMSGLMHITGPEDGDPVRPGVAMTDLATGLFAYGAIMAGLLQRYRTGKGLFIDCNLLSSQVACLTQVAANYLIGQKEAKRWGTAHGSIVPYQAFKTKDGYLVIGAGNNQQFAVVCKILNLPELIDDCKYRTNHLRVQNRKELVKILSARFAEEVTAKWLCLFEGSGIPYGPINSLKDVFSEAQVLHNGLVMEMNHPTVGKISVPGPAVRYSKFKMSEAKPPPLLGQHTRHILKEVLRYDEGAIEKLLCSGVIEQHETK
UniProt Q80T85, whole entry: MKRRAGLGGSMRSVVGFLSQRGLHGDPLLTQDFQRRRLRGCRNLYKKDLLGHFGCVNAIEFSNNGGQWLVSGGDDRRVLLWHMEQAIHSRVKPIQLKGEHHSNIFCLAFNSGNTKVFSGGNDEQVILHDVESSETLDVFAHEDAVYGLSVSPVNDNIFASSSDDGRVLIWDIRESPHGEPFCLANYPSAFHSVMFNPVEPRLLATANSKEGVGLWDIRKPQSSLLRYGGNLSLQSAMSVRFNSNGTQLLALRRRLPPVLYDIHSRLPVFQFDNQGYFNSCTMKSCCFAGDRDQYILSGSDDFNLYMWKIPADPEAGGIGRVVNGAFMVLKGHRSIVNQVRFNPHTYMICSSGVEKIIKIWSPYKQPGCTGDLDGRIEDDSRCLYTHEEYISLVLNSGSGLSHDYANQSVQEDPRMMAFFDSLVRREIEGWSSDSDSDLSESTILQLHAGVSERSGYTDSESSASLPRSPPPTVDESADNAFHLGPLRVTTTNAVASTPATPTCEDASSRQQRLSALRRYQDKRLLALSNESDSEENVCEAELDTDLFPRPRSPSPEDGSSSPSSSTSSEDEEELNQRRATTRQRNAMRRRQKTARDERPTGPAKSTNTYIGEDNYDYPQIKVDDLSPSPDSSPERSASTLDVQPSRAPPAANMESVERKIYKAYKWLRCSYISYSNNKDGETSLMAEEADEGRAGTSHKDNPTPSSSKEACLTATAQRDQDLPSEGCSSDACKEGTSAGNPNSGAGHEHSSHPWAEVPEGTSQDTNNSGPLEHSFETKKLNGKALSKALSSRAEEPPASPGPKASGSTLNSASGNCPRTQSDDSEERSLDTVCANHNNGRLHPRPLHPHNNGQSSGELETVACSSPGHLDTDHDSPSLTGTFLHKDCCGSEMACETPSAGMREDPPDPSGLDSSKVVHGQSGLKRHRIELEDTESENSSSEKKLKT
UniProt Q6ZQ58, whole entry: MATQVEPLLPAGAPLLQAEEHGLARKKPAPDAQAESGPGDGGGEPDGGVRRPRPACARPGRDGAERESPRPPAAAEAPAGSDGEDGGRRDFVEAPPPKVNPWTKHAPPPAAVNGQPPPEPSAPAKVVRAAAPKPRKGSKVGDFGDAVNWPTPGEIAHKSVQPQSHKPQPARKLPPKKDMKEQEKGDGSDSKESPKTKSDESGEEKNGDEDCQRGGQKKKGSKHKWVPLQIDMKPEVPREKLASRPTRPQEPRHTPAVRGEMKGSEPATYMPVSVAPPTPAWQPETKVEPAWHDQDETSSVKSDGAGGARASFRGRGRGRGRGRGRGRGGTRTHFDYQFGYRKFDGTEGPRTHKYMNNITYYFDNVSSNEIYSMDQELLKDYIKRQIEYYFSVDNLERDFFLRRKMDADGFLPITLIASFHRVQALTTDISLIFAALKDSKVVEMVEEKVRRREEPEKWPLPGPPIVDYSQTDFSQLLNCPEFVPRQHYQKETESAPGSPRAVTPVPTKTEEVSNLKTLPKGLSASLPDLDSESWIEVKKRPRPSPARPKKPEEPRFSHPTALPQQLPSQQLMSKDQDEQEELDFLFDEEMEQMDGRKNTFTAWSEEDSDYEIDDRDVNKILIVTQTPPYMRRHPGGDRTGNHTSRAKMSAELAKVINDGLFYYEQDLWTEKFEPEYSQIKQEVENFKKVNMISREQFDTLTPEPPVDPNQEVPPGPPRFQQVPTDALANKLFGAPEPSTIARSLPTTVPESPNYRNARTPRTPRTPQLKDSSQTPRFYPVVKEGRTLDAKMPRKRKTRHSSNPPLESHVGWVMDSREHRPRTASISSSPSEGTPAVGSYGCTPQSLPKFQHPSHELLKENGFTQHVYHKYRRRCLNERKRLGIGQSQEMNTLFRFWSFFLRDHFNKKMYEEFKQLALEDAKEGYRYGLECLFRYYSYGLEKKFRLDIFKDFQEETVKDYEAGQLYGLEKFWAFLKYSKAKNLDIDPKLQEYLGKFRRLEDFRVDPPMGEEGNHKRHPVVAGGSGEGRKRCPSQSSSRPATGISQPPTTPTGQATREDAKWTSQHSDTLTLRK

Some of the results follow. Most values lie at the level of the controls, where differences are scatter.

Compound in the experiment: CN[C@@H]1C[C@H]2O[C@@](C)([C@@H]1OC)n1c3ccccc3c3c4c(c5c6ccccc6n2c5c31)C(=O)NC4 [staurosporine]
The experiment in a line: log2 fold change of tryptic peptide abundance, ligand vs vehicle (limited proteolysis) (log2 ratio); higher = more trypsin-susceptible (destabilized). The conditions noted are these: ligand concentration: 20 uM; sample: mouse liver crude lysate; replicate design: treated separately.
“UniProt Q7TT37 (peptide sequence: KLDLICDAMR, peptide start residue: 816)”: the log2 fold change is 0.594.
“UniProt Q80UQ2 (peptide sequence: THVLASEAR, peptide start residue: 116)”: the log2 fold change was -0.295.
Under “UniProt Q7TQ95 (peptide sequence: NNEALDDLK, peptide start residue: 105)” stands 0.42; under “UniProt Q7TNV0 (peptide sequence: SGVNSELVKR, peptide start residue: 173)”, 0.497.
To “UniProt Q6ZQ73 (peptide sequence: AVAALLTNPEVR, peptide start residue: 1183)” belongs 0.218; to “UniProt Q7TMY4 (peptide sequence: VIQHHPDRHETLK, peptide start residue: 125)”, 0.36.
Under “UniProt Q80U95 (peptide sequence: DACLGIIK, peptide start residue: 551)” stands -0.268; under “UniProt Q80UN1 (peptide sequence: MLCSNAEGASLR, peptide start residue: 230)”, -0.3; under “UniProt Q80U22 (peptide sequence: GQEGPGDMDR, peptide start residue: 1208)”, 0.635.
Regarding “UniProt Q6WKZ7 (peptide sequence: STEKLEKEDESYYQK, peptide start residue: 176)”, the log2 fold change is -0.39.
As for “UniProt Q80TF4 (peptide sequence: TAVDTVFR, peptide start residue: 364)”, the log2 fold change was determined as 0.207.
To “UniProt Q6ZPJ0 (peptide sequence: IYDLSDSK, peptide start residue: 606)” belongs -0.594; to “UniProt Q6ZPZ3 (peptide sequence: KDVTLSKPSFAR, peptide start residue: 971)”, 0.308.
For the target “UniProt Q7TPH6 (peptide sequence: EHMVGIIFSR, peptide start residue: 4021)”, the log2 fold change stood at 0.765.
Under “UniProt Q76MZ3 (peptide sequence: KLSTIALALGVER, peptide start residue: 34)” stands -0.173.
Under “UniProt Q80V26 (peptide sequence: EVIVWNR, peptide start residue: 140)” stands -0.223; under “UniProt Q7TNH6 (peptide sequence: EAETSLLGGK, peptide start residue: 1287)”, -0.586.
Under “UniProt Q7TPD2 (peptide sequence: QGSAPDDSGAGLAR, peptide start residue: 34)” stands 0.0519; under “UniProt Q7TNE3 (peptide sequence: LRQSGEELPTTS, peptide start residue: 216)”, 0.126; under “UniProt Q80TL7 (peptide sequence: RYLLQPLGDFSR, peptide start residue: 1128)”, -0.596.
Regarding “UniProt Q6ZPV2 (peptide sequence: DMGHDGIQEEILR, peptide start residue: 406)”, the log2 fold change was -0.263.
Under “UniProt Q80TP3 (peptide sequence: WSSGVGGSGGGSSGR, peptide start residue: 132)” stands -0.18.
To “UniProt Q78PY7 (peptide sequence: EVCFTIENKTPQGR, peptide start residue: 94)” belongs -0.233.
Under “UniProt Q70KY4 (peptide sequence: DKGDSNSSAGWK, peptide start residue: 196)” stands -0.109.
With “UniProt Q7TMF2 (peptide sequence: LKNYYKK, peptide start residue: 102)”, the log2 fold change was -0.506.
Turning to “UniProt Q7TN12 (peptide sequence: IVRTPSLK, peptide start residue: 565)”, the log2 fold change was determined as 0.172.
Under “UniProt Q7TMS5 (peptide sequence: SSLLDVLAAR, peptide start residue: 86)” stands -0.262; under “UniProt Q6ZQ38 (peptide sequence: CLGPLVSK, peptide start residue: 71)”, -0.244.
To “UniProt Q791T5 (peptide sequence: GGAPAGVEAR, peptide start residue: 30)” belongs -0.0915; to “UniProt Q7TMV1 (peptide sequence: ITPCNHYFHALCLR, peptide start residue: 560)”, 0.664; to “UniProt Q7TNE1 (peptide sequence: MSEAKPPPLLGQHTR, peptide start residue: 393)”, -0.173.
Under “UniProt Q80U19 (peptide sequence: ELSVIDGR, peptide start residue: 683)” stands -0.208; under “UniProt Q80T85 (peptide sequence: EACLTATAQR, peptide start residue: 709)”, 0.245.
Take “UniProt Q6ZQ58 (peptide sequence: FQHPSHELLK, peptide start residue: 849)”: the log2 fold change is 0.238.
Under “UniProt Q7TPZ8 (peptide sequence: VRELEELEHLK, peptide start residue: 39)” stands 0.472; under “UniProt Q6ZPR6 (peptide sequence: KMIALTTK, peptide start residue: 1159)”, 0.15; under “UniProt Q75N73 (peptide sequence: DQEEGVTEK, peptide start residue: 265)”, -0.171.
Under “UniProt Q6ZQK5 (peptide sequence: SLGVHFSK, peptide start residue: 443)” stands 0.132; under “UniProt Q7TQI3 (peptide sequence: VYLLYRPGHYDILYK, peptide start residue: 257)”, -0.275; under “UniProt Q7TT18 (peptide sequence: FGAAKDDLK, peptide start residue: 687)”, 0.3.
